{"source": "PubChem BioAssay AID504774 (Drosophila RNAi Screening Center, 2011)", "test": "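Knock-downs that shift viability of MMS-exposed cells relative to untreated ones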 (primary screen)", "cell system": "Drosophila Kc167 cells", "knock-down reagent": "long dsRNA against Drosophila genes, about 0.25 µg dsRNA per well", "time to read-out": "about 6 days: 3 days knock-down, then 3 days with or without MMS", "treatment": "methyl methanesulphonate 0.004% (w/v) for 3 days after knock-down", "detection": "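Viability in wells given MMS, read as ATP luminescence, normalised by quantiles plate by plate and averaged across replicates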", "scale": "mean viability with MMS: higher = more surviving cells after MMS", "note": "In all, the deposit lists about 23,000 reagents; below is a random part of those with a known target gene and a result. 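Values are quantile-normalised luminescence on an arbitrary scale; higher means more cells surviving MMS.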 Further read-outs or replicates are left out here."}
{"target gene": "LS2", "DRSC id": "DRSC04340", "mean viability with MMS": 3.51e6}
{"target gene": "CG9289", "DRSC id": "DRSC03187", "mean viability with MMS": 3.33e6}
{"target gene": "CG13315", "DRSC id": "DRSC09986", "mean viability with MMS": 3.43e6}
{"target gene": "Prp18", "DRSC id": "DRSC16802", "mean viability with MMS": 3.44e6}
{"target gene": "CG10073", "DRSC id": "DRSC05961", "mean viability with MMS": 3.55e6}
{"target gene": "pasi1", "DRSC id": "DRSC16299", "mean viability with MMS": 3.72e6}
{"target gene": "pasi1", "DRSC id": "DRSC22385", "mean viability with MMS": 3.46e6}
{"target gene": "aspr", "DRSC id": "DRSC20689", "mean viability with MMS": 3.51e6}
{"target gene": "aspr", "DRSC id": "DRSC20690", "mean viability with MMS": 3.52e6}
{"target gene": "GstT2", "DRSC id": "DRSC06244", "mean viability with MMS": 3.48e6}
{"target gene": "CR14798", "DRSC id": "DRSC17956", "mean viability with MMS": 3.52e6}
{"target gene": "CG31806", "DRSC id": "DRSC02787", "mean viability with MMS": 3.55e6}
{"target gene": "Gr22d (retired record)", "DRSC id": "DRSC21653", "mean viability with MMS": 3.54e6}
{"target gene": "CG10588", "DRSC id": "DRSC11628", "mean viability with MMS": 3.49e6}
{"target gene": "CG33124", "DRSC id": "DRSC00298", "mean viability with MMS": 3.51e6}
{"target gene": "DNAlig1", "DRSC id": "DRSC04518", "mean viability with MMS": 3.26e6}
{"target gene": "meru", "DRSC id": "DRSC09400", "mean viability with MMS": 3.57e6}
{"target gene": "meru", "DRSC id": "DRSC09899", "mean viability with MMS": 3.39e6}
{"target gene": "meru", "DRSC id": "DRSC10215", "mean viability with MMS": 3.72e6}
{"target gene": "CG32795", "DRSC id": "DRSC18609", "mean viability with MMS": 3.45e6}
{"target gene": "CG32795", "DRSC id": "DRSC18610", "mean viability with MMS": 3.50e6}
{"target gene": "CG30413", "DRSC id": "DRSC04001", "mean viability with MMS": 3.60e6}
{"target gene": "CG17746", "DRSC id": "DRSC08521", "mean viability with MMS": 3.68e6}
{"target gene": "CG17746", "DRSC id": "DRSC23333", "mean viability with MMS": 3.62e6}
{"target gene": "CG14079", "DRSC id": "DRSC10083", "mean viability with MMS": 3.65e6}
{"target gene": "CG12826", "DRSC id": "DRSC06175", "mean viability with MMS": 3.42e6}
{"target gene": "CG9330", "DRSC id": "DRSC11066", "mean viability with MMS": 3.57e6}
{"target gene": "obst-A", "DRSC id": "DRSC20543", "mean viability with MMS": 3.68e6}
{"target gene": "ATPsynCF6", "DRSC id": "DRSC14092", "mean viability with MMS": 3.48e6}
{"target gene": "CG4363", "DRSC id": "DRSC04465", "mean viability with MMS": 3.56e6}
{"target gene": "png", "DRSC id": "DRSC18582", "mean viability with MMS": 3.48e6}
{"target gene": "pps", "DRSC id": "DRSC16057", "mean viability with MMS": 3.26e6}
{"target gene": "mRpL1", "DRSC id": "DRSC16251", "mean viability with MMS": 3.44e6}
{"target gene": "CG9143", "DRSC id": "DRSC07338", "mean viability with MMS": 3.43e6}
{"target gene": "SmB", "DRSC id": "DRSC03437", "mean viability with MMS": 2.79e6}

Already shown: an excerpt of the list.
{"target gene": "CG4363", "DRSC id": "DRSC04465", "mean viability with MMS": 3.56e6}
{"target gene": "png", "DRSC id": "DRSC18582", "mean viability with MMS": 3.48e6}
{"target gene": "pps", "DRSC id": "DRSC16057", "mean viability with MMS": 3.26e6}
{"target gene": "mRpL1", "DRSC id": "DRSC16251", "mean viability with MMS": 3.44e6}
